# Measurements taken from patent publication US20210179727A1.
# No constants are given. Whether binding was seen depends on the method and setting. Binding calls can cover weak binding; strength is not graded here.
# B1: LYV377 (chimeric antibody, 13F1A7 in human IgG4SP / human kappa) (antibody, V domains shown)
# VH: EVQILETGGGLVKPGGSLRLSCATSGFNFNDSFMNWVRQAPGKGLEWVAQIRNKNYNYATYYTESLEGRVTISRDDSKSRVYLQVSSLRAEDSAVYYCTSYYYDGFADYFDYWGQGVMVTVSS
# VL: DIKMTQSPSFLSASVGDSVTFTCKASQNIYIYLNWYQQKFGEAPKLLIYNTNNLQTGIPSRFSGSESGTVFTLTISSLQPEDVATYFCLQHSSRRTFGGGTKLELKR
# B2: LYV379 (chimeric antibody, 17C5C2 in human IgG4SP / human kappa) (antibody, V domains shown)
# VH: EVHILETGGGLVKPGGSLGLSCTTSGFNFNDYFMNWVRQAPGKGLEWVAQIRNGNYDYAAYYAESLEGRVTISRDDSKSSVNLQVSSLRAEDTAIYYCTSYYYDGHFDYFDNWGHGVMVTVSS
# VL: DIKVTQSPSFLSASVGDRATINCKASQNLNKYLNWYQQKPGEPPKLLIYNTDNLYTGIPSRFSGSGSVADFTLTISGLQPEDVATYFCMQHNVRRTFGGGTKLELKR
# B3: LYV376 (chimeric antibody, 19G6D6 in human IgG4SP / human kappa) (antibody, V domains shown)
# VH: EVQLQQSGPELVKPGASVKIPCKASGYTFTDYNMDWVKQSHGKSLEWIGDINPNNDISIYNQKFRGKATLTVDKSSSTAYMELRSLTSEDTAVYYCARRFAYWGQGTLVTVSA
# VL: EIVLTQSPTTMAASPGEKITITCSASSSISSNYLHWYQQKPGSSPKVLIYRTSNLASGVPVRFSGSGSGTSYSLTIGTMEAEDVATYYCQQGSSIPYTFGGGTKLEIKR
# B4: LYV378 (chimeric antibody, 9F12D9 in human IgG4SP / human kappa) (antibody, V domains shown)
# VH: EVHLVESGGGLVQPGRSLKLSCAASGFTFTNYGLHWIRQAPTKGLEWVASISPSGGVTYYRDSVKGRFTISRDNGKTTLHLQMDSLRSEDTATYYCALPFLGWGGANWIAHWGQGTLVTVSS
# VL: DIQMTQSPASLSASLGETVSIECLASEDISNDLAWYQQKSGKSPQLLIYFVDRLLDGVPSRFSGSGSGTRHSLKISGMQPEDEADYFCQQSYKYPPTFGGGTKLELKR
# Target: monkey CD40 protein (plate coat of the ELISA of Fig. 5) (cynomolgus monkey per paragraph 23; rhesus monkey per paragraph 173)
# Assay: ELISA on monkey CD40 protein coated on the plate, anti-human IgG-HRP, A450
row,binding,Binder
1,binds,B1
2,binds,B2
3,binds,B3
4,binds,B4
